# Values joined by “and” are separate entries in the source; they are usually repeats but may differ in a detail not shown here. Identical values can stand only once. Among all 360,000 compounds or so, about 7,500 (2.1%) were called active. The shares of active, inactive and inconclusive entries below differ from those in the screen. The call rests on the fitted dose curve; in most records, active means well fitted inhibition curve with a large enough effect; inconclusive means small, poorly fitted or top-dose-only effect, or effect the other way; inactive means flat fitted curve, though single readings scatter. Where the call is inconclusive, the potency comes from a doubtful curve fit.
# Assay: Nrf2 qHTS screen for inhibitors; further: nearly all actives have a fitted effect of over 60% in size
# Conditions: A549 ARE-Fluc reporter, luciferase luminescence, 18-24 h; activity change, negative = inhibition: at 46 µM (top of the series)
# How it was run: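 Nrf2 function is reported as luminescence of an ARE-controlled luciferase in A549 cells. Compounds were tested at several concentrations, and a CellTiter-Fluor read on the same wells flagged cytotoxicity.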
# On the % scale 0 is the no-effect control and ±100 the full control effect; potency means the concentration at half of the fitted maximal effect.
SMILES,Potency,"activity change, negative = inhibition"
CCCOc1ccccc1C(=O)N1CCC(c2nc3ccccc3s2)CC1,"inconclusive: 32.6 µM [falling, single point]",
COC(=O)CN1C(=O)CSc2ccc(S(=O)(=O)Nc3ccc(Cl)cc3C)cc21,inactive,
Cc1cc(N2CCOCC2)nc2ccc(NC(=S)N3CCCCC3C)cc12 (stereo not given),"inconclusive: 18.4 µM [activator, single point]",
c1cc(-c2cc3cc(N4CCOCC4)ccc3o2)cs1,"inconclusive: 0.291 µM [activator, full curve]",
CCOc1ccc(N(CC(=O)NC2CCCCC2)C(=O)CSc2nnc(COc3ccccc3)o2)cc1,"inconclusive: 29.1 µM [falling, single point]",
CC(C)CCNC(=O)C(C)N(C(=O)Cn1nnc(-c2ccc(F)cc2)n1)C1CCCC1 (stereo not given),"inconclusive: 16.4 µM [falling, partial curve, poor fit]",
COc1cc(C)ccc1OCc1cc(C(=O)NCCN2CCCC(O)C2)no1 (stereo not given),"inconclusive: 0.366 µM [falling, partial curve, poor fit]",
N#C/C(=C\c1ccc(N2CCOCC2)o1)c1ccccc1,"inconclusive: 7.31 µM [activator, partial curve]",
COCCn1c(C)cc(C(=O)COC(=O)C23CC4CC(CC(O)(C4)C2)C3)c1C,"inconclusive: 2.59 µM [activator, partial curve]",
C=Cc1ccc(CSc2nc(-c3ccc(OC)cc3)nc3c2Cc2c(CO)cnc(C)c2O3)cc1,inactive,
O=C(c1ccc(NC(=S)Nc2ccc(Cl)c(Cl)c2)cc1)N1CCCC1,"inconclusive: 16.4 µM [falling, partial curve, poor fit]",
CN1CCC2(CC1)C1CN(C)CC=C1C(C#N)=C(N)C2(C#N)C#N (stereo not given),inactive,
COc1ccc(NCC(O)Cn2c(C)c(C)c3ccccc32)cc1 (stereo not given),"inconclusive: 2.59 µM [activator, partial curve, poor fit]",
COc1cccc(-c2nc3c(c(SCc4ccccc4)n2)Cc2c(CO)cnc(C)c2O3)c1,"inconclusive: 32.6 µM [activator, single point]",
Clc1cccc(CSc2nnc(-c3sccc3-n3cccc3)o2)c1,"inconclusive: 20.6 µM [falling, single point]",
Cc1ccc(C(=O)CSc2ccccc2C(=O)O)cc1,"inconclusive: 6.51 µM [activator, single point]",
Cc1ccc(S(=O)(=O)c2nc(-c3ccccc3Cl)oc2N2CCN(C)CC2)cc1,inactive,
CCCn1c(=O)n(-c2ccccc2)c(=O)c2sc3ccccc3c21,inactive,
COC(=O)c1ccccc1-c1ccc(/C=N/NC(=O)c2cc3ccccc3o2)o1,inactive,
O=C(CSc1nc2ccccc2c(=O)[nH]1)N1CCN(c2ccccc2F)CC1,"inconclusive: 2.06 µM [falling, partial curve, poor fit]",
COC(=O)c1c(NC(=O)CN2C(=O)NC3(CCCCC3C)C2=O)sc2c1CCC2 (stereo not given),active: 16.4 µM,
Cc1ccc(CNC(=O)N[C@@H](Cc2ccccc2)C(=O)O)cc1,inactive,

SMILES,Potency,"activity change, negative = inhibition"
NC(=O)c1c(NC(=O)COC(=O)c2ccc(S(=O)(=O)Nc3ccccc3)cc2)sc2c1CCCC2,inactive,
COc1ccc(NC(=O)c2ccc(C)cc2)c(OC)c1,"inconclusive: 16.4 µM [activator, single point]",
CCCc1cc(=O)[nH]c(SCc2ccc(Cl)cc2)n1,"inconclusive: 29.1 µM [activator, single point]",
Cc1ccc(Nc2c(-c3ccc(C)cc3)nc3cnccn23)cc1,,inactive: -2.28% [at 9.27 µM]
O=C(c1cc2cc3ccc(Cl)cc3nc2o1)N1CCCCCC1,"inconclusive: 2.31 µM [activator, full curve, poor fit]",
Cc1ccc(-n2c(C)cc(C(=O)COC(=O)c3ccc[nH]c3=O)c2C)cc1C,"inconclusive: 8.2 µM [falling, partial curve, poor fit]",
O=C(Cc1cccs1)N/N=C/C=C\c1ccco1,"inconclusive: 9.2 µM [activator, partial curve]",
COc1ccccc1N1CCN(C2CCCN(Cc3c(F)cccc3F)C2)CC1 (stereo not given),"inconclusive: 0.0046 µM [falling, full curve, poor fit]",
C/C(=N\NC(=S)Nc1c(C)cccc1C)c1ccc(OC(F)F)cc1,"inconclusive: 29.1 µM [falling, single point]",
O=S(=O)(Nc1ccc(Cc2ccncc2)cc1)c1ccc(Br)cc1,"inconclusive: 23.1 µM [falling, partial curve, poor fit]",
Cc1nc2ccccc2c2oc(C(=O)N3CCN(C4CCCCC4)CC3)cc12,"inconclusive: 16.4 µM [falling, partial curve]",
Cc1cc(NC(=O)C2COc3ccccc3O2)no1 (stereo not given),"inconclusive: 13 µM [activator, partial curve, poor fit]",
O=C(Nc1ccc(F)cc1F)C1CCCN(c2ncnc3c2nc2n3CCCCC2)C1 (stereo not given),"inconclusive: 16.4 µM [falling, partial curve, poor fit]",
Cc1ccc(Nc2ncccc2C(N)=O)cc1[N+](=O)[O-],"inconclusive: 29.1 µM [activator, single point]",
COc1ccc(C2=Nn3c(nnc3-c3cccc(OC)c3OC)SC2)cc1,inactive,
CCOC(=O)c1oc2cc(O)ccc2c(=O)c1-c1ccc(OC)cc1,"inconclusive: 16.4 µM [falling, single point]",
O=C(CC1C(=O)NCCN1Cc1cccc(F)c1)NC1CCCCC1 (stereo not given),"inconclusive: 25.9 µM [activator, partial curve, poor fit]",
Cc1cccc(NCc2ccc(N(C)C)cc2)n1,"inconclusive: 2.59 µM [activator, partial curve]",
CCOc1ccc(NC(=O)c2ccccc2-c2ccccc2C(=O)O)cc1,"inconclusive: 18.4 µM [activator, single point]",
COC(=O)c1cc(NC(=O)c2cc(-c3ccc(Cl)cc3)oc2C(F)(F)F)ccc1N1CCOCC1,"inconclusive: 16.4 µM [falling, single point]",
CCCC(=O)c1c(C)c2ccccc2n1C,"inconclusive: 4.61 µM [falling, single point]",
C=CCNC(=S)N1CCC(C(=O)c2ccc(F)cc2)CC1,"inconclusive: 10.3 µM [falling, partial curve]",

SMILES,Potency,"activity change, negative = inhibition"
Cc1cccc(NC(=O)C(=O)NCC(c2cccnc2)N2CCOCC2)c1 (stereo not given),"inconclusive: 18.4 µM [falling, single point]",
CCCOc1cccc(C(=O)Nc2ccc(Br)cc2F)c1,"inconclusive: 4.61 µM [activator, partial curve]",
Cc1cc2nc3ccc(=[N+](C)C)cc-3sc2cc1N,"inconclusive: 16.4 µM [falling, single point]",
CCOc1c(Br)cc(C(=O)NCCCn2ccnc2)cc1OC,inactive,
N#Cc1c(N)nc2c3c(sc(=N)c2c1N)NC(=O)CC3c1ccccc1 (stereo not given),inactive,
Cc1cccc(OCCNC(=O)c2ccc(Oc3ccc(C(F)(F)F)cc3[N+](=O)[O-])cc2)c1,"inconclusive: 14.6 µM [falling, partial curve, poor fit]",
Cc1ccc(OCC(=O)Nc2ccc3c(c2)nc(CCN2CCOCC2)n3C)cc1,"inconclusive: 0.58 µM [falling, partial curve, poor fit]",
O=C(NCCO)c1cc2c([nH]c3ccccc32)c(-c2ccccc2)n1,"inconclusive: 10.3 µM [falling, partial curve]",
COc1ccc(C(=O)NCC(c2ccco2)N2CCc3ccccc32)cc1 (stereo not given),"inconclusive: 32.6 µM [activator, single point]",
N#C/C(=C\c1ccc(-c2cccc([N+](=O)[O-])c2)o1)C(=O)NCCN1CCOCC1,"inconclusive: 13 µM [falling, partial curve, poor fit]",
CC(C)c1ccc(CNCCSc2nnnn2C)cc1,"inconclusive: 1.84 µM [activator, full curve]",
Cc1coc(C)c1C(=O)CC1(O)C(=O)N(CCc2ccccc2)c2ccccc21 (stereo not given),"inconclusive: 3.66 µM [falling, partial curve, poor fit]",
CCOC(=O)c1ccccc1Nc1cn(C(C)=O)c2ccccc12,inactive,
COc1ccccc1-[n+]1c(C)cc(/C=C2\Sc3ccccc3N2C)cc1C,active: 4.11 µM,
Cc1nnc(NC(=O)c2nc(S(=O)(=O)Cc3ccccc3)ncc2Cl)s1,"inconclusive: 29.1 µM [falling, single point] and inconclusive: 20.6 µM [falling, single point]",
O=c1[nH]c2cc3c(cc2cc1CN(CCc1ccccc1)C(=S)NCCCN1CCOCC1)OCCO3,"inconclusive: 8.2 µM [falling, partial curve, poor fit]",
O=C(Cn1nc(Br)nc1Br)c1ccccc1,"inconclusive: 0.092 µM [activator, full curve, poor fit]",
Cc1ccc2nc(-c3ccccn3)c(Nc3ccc(F)cc3)n2c1,"inconclusive: 23.1 µM [falling, single point]",
CCC(C)NC(=O)c1ccc2c(c1)N(Cc1ccccc1)C(=O)c1ccccc1S2(=O)=O (stereo not given),inactive,
Cc1cc(C)c(NC(=O)CO/N=C2\CCCc3nonc32)c(C)c1,"inconclusive: 3.26 µM [activator, partial curve, poor fit]",
Cc1cc(C(=O)N2CC=C(c3ccccc3)CC2)c2ccccc2n1,"inconclusive: 18.4 µM [falling, partial curve, poor fit]",
